Measured values published in the supplement of paper PMC8728848.
Some of the results follow.

Key:
Test in all cases: glycan array binding signal (z-score within array); higher = stronger binding
Conditions in all cases: glycan notation: IUPAC condensed, linker removed
Fuc(a1-2)Gal = biological target: Fuc(a1-2)Gal
In short: (§1)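 Columns mapping to the same glycan were averaged after glycan names were converted to IUPAC-condensed notation. The data come from 3228 arrays in the Consortium for Functional Glycomics database, limited to those with an available protein sequence. Binding is reported as a within-array Z-score averaged across arrays of one protein sequence and across linkers.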

Fuc(a1-2)Gal(b1-3)GalNAc = biological target: Fuc(a1-2)Gal(b1-3)GalNAc
In short: as §1

[1] = biological target: Fuc(a1-2)Gal(b1-3)GalNAc(a1-3)[Fuc(a1-2)]Gal(b1-4)Glc
In short: as §1

[2] = biological target: Fuc(a1-2)Gal(b1-3)GalNAc(a1-3)[Fuc(a1-2)]Gal(b1-4)GlcNAc
In short: as §1

[3] = biological target: Fuc(a1-2)Gal(b1-3)GalNAc(b1-3)Gal
In short: as §1

[4] = biological target: Fuc(a1-2)Gal(b1-3)GalNAc(b1-3)Gal(a1-4)Gal(b1-4)Glc
In short: as §1

[5] = biological target: Fuc(a1-2)Gal(b1-3)GalNAc(b1-4)[Neu5Ac(a2-3)]Gal(b1-4)Glc
In short: as §1

Fuc(a1-2)Gal(b1-3)GlcNAc = biological target: Fuc(a1-2)Gal(b1-3)GlcNAc
In short: as §1

[6] = biological target: Fuc(a1-2)Gal(b1-3)GlcNAc(b1-2)Man(a1-3)[Fuc(a1-2)Gal(b1-3)GlcNAc(b1-2)Man(a1-6)]Man(b1-4)GlcNAc(b1-4)GlcNAc
In short: as §1

[7] = biological target: Fuc(a1-2)Gal(b1-3)GlcNAc(b1-2)Man(a1-3)[Fuc(a1-2)Gal(b1-3)GlcNAc(b1-2)Man(a1-6)]Man(b1-4)GlcNAc(b1-4)[Fuc(a1-6)]GlcNAc
In short: as §1

[8] = biological target: Fuc(a1-2)Gal(b1-3)GlcNAc(b1-3)Gal(b1-4)Glc
In short: as §1

[9] = biological target: Fuc(a1-2)Gal(b1-3)GlcNAc(b1-3)GalNAc
In short: as §1

[10] = biological target: Fuc(a1-2)Gal(b1-3)GlcNAc(b1-3)[Fuc(a1-2)Gal(b1-3)GlcNAc(b1-6)]GalNAc
In short: as §1

[11] = biological target: Fuc(a1-2)Gal(b1-3)GlcNAc(b1-3)[Gal(b1-4)GlcNAc(b1-6)]Gal(b1-4)Glc
In short: as §1

[12] = biological target: Fuc(a1-2)Gal(b1-3)GlcNAc(b1-3)[Neu5Ac(a2-6)Gal(b1-4)GlcNAc(b1-6)]Gal(b1-4)Glc
In short: as §1

[13] = biological target: Fuc(a1-2)Gal(b1-3)GlcNAc6S
In short: as §1

[14] = biological target: Fuc(a1-2)Gal(b1-3)[Fuc(a1-4)]GlcNAc
In short: as §1

[15] = biological target: Fuc(a1-2)Gal(b1-3)[Fuc(a1-4)]GlcNAc(b1-2)Man(a1-3)[Fuc(a1-2)Gal(b1-3)[Fuc(a1-4)]GlcNAc(b1-2)Man(a1-3)]Man(b1-4)GlcNAc(b1-4)GlcNAc
In short: as §1

[16] = biological target: Fuc(a1-2)Gal(b1-3)[Fuc(a1-4)]GlcNAc(b1-2)Man(a1-3)[Fuc(a1-2)Gal(b1-3)[Fuc(a1-4)]GlcNAc(b1-2)Man(a1-6)]Man(b1-4)GlcNAc(b1-4)[Fuc(a1-6)]GlcNAc(b1-4)[Fuc(a1-6)]GlcNAc
In short: as §1

[17] = biological target: Fuc(a1-2)Gal(b1-3)[Fuc(a1-4)]GlcNAc(b1-3)[Fuc(a1-3)[Gal(b1-4)]GlcNAc(b1-6)]Gal(b1-4)Glc
In short: as §1

[18] = biological target: Fuc(a1-2)Gal(b1-3)[Fuc(a1-4)]GlcNAc(b1-3)[Gal(b1-4)GlcNAc(b1-6)]Gal(b1-4)Glc
In short: as §1

Fuc(a1-2)Gal(b1-4)Glc = biological target: Fuc(a1-2)Gal(b1-4)Glc
In short: as §1

Fuc(a1-2)Gal(b1-4)Glc6S = biological target: Fuc(a1-2)Gal(b1-4)Glc6S
In short: as §1

Fuc(a1-2)Gal(b1-4)GlcNAc = biological target: Fuc(a1-2)Gal(b1-4)GlcNAc
In short: as §1

[19] = biological target: Fuc(a1-2)Gal(b1-4)GlcNAc(b1-2)Man
In short: as §1

[20] = biological target: Fuc(a1-2)Gal(b1-4)GlcNAc(b1-2)Man(a1-3)[Fuc(a1-2)Gal(b1-4)GlcNAc(b1-2)Man(a1-6)]Man(b1-4)GlcNAc(b1-4)GlcNAc
In short: as §1

[21] = biological target: Fuc(a1-2)Gal(b1-4)GlcNAc(b1-2)Man(a1-3)[Fuc(a1-2)Gal(b1-4)GlcNAc(b1-2)Man(a1-6)]Man(b1-4)GlcNAc(b1-4)[Fuc(a1-6)]GlcNAc
In short: as §1

[22] = biological target: Fuc(a1-2)Gal(b1-4)GlcNAc(b1-2)[Fuc(a1-2)Gal(b1-4)GlcNAc(b1-4)]Man(a1-3)[Fuc(a1-2)Gal(b1-4)GlcNAc(b1-2)Man(a1-6)]Man(b1-4)GlcNAc(b1-4)GlcNAc
In short: as §1

[23] = biological target: Fuc(a1-2)Gal(b1-4)GlcNAc(b1-3)Gal(b1-4)GlcNAc
In short: as §1

[24] = biological target: Fuc(a1-2)Gal(b1-4)GlcNAc(b1-3)Gal(b1-4)GlcNAc(b1-2)Man(a1-3)[Fuc(a1-2)Gal(b1-4)GlcNAc(b1-3)Gal(b1-4)GlcNAc(b1-2)Man(a1-6)]Man(b1-4)GlcNAc(b1-4)GlcNAc
In short: as §1

B1: PX9961KLbvu-535-38-535 (Bacteroides vulgatus) (protein)
chain: DKAYTDAESYTKGLHKIYSVWALSGQDGSSSSDISGLDAGNTALLRCWWTLQEQPTDEMKNAWNDAWCTEVNYMTWTTNKVEPIEGVYQRCMYIVALVNEFLKNIPNAPESIDKESYIAQARFNRAFAYYVLMDMFALPPFITEKNYSIEPAPLSREDLFNWIEAELNEIKPNLPSPRSEYGVADQAVASALLARMYLNAEIYTGKARYTECINACNEVIKAGYQLADNYADLFKADNGENPDTKKEIIYPIIFDGDKTQSWGMAAIIIGARGAEDKDVLLAHSGVDQGWAGFRATSNLVHLFDFQNDEEPKASEIQDKRGIFYDKGRSIDITSSVSGTFETEGWSVFKFSNLNSNGQPGKNTLWVDTDFPMFRLGDIYLMYAEAVARGGEGSKASAVEYINALRKRAYGDDKHNISENWLEENNFRNLLDERGRELYWEGIRRTDLVRFDLLTSGSYTWDFKGGINTGVGVNKRYNVYPIPVTDLTVNGNLQQNEGY
B1 was tested, and the “glycan array binding signal (z-score)” value (Fuc(a1-2)Gal) was 0.633, the “glycan array binding signal (z-score)” value (Fuc(a1-2)Gal(b1-3)GalNAc) was 0.513 and the “glycan array binding signal (z-score)” value [1] was 0.548. The “glycan array binding signal (z-score)” value [2] was -0.462, the “glycan array binding signal (z-score)” value [3] was -0.097 and the “glycan array binding signal (z-score)” value [4] was -0.926. For the same binder, the “glycan array binding signal (z-score)” value [5] was -0.183, the “glycan array binding signal (z-score)” value (Fuc(a1-2)Gal(b1-3)GlcNAc) was 0.03 and the “glycan array binding signal (z-score)” value [6] was 0.87. For the same binder, the “glycan array binding signal (z-score)” value [7] was 0.001, the “glycan array binding signal (z-score)” value [8] was -0.378 and the “glycan array binding signal (z-score)” value [9] was 1.02. The “glycan array binding signal (z-score)” value [10] was 0.03, the “glycan array binding signal (z-score)” value [11] was -0.255 and the “glycan array binding signal (z-score)” value [12] was 0.204. The “glycan array binding signal (z-score)” value [13] was 0.498, the “glycan array binding signal (z-score)” value [14] was -0.042 and the “glycan array binding signal (z-score)” value [15] was -0.623. For the same binder, the “glycan array binding signal (z-score)” value [16] was 0.332, the “glycan array binding signal (z-score)” value [17] was -0.661 and the “glycan array binding signal (z-score)” value [18] was -0.812. The “glycan array binding signal (z-score)” value (Fuc(a1-2)Gal(b1-4)Glc) was -0.031, the “glycan array binding signal (z-score)” value (Fuc(a1-2)Gal(b1-4)Glc6S) was -0.986 and the “glycan array binding signal (z-score)” value (Fuc(a1-2)Gal(b1-4)GlcNAc) was -0.803. For the same binder, the “glycan array binding signal (z-score)” value [19] was 0.5, the “glycan array binding signal (z-score)” value [20] was 0.043 and the “glycan array binding signal (z-score)” value [21] was 0.549. The “glycan array binding signal (z-score)” value [22] was 2.87, the “glycan array binding signal (z-score)” value [23] was -0.646 and the “glycan array binding signal (z-score)” value [24] was 0.9.
